Measured values from publication PMC4015952.
Results are given in words; binding and its absence hold for the method and conditions named. In cells and extracts the contact can be indirect. Some results given as binding are weak or reduced against the parent protein; the word gives no strength.

The chains behind the UniProt entries cited, without tags or fusion partners. Residues count along the entry.
UniProt Q99IB8, residues 384-750: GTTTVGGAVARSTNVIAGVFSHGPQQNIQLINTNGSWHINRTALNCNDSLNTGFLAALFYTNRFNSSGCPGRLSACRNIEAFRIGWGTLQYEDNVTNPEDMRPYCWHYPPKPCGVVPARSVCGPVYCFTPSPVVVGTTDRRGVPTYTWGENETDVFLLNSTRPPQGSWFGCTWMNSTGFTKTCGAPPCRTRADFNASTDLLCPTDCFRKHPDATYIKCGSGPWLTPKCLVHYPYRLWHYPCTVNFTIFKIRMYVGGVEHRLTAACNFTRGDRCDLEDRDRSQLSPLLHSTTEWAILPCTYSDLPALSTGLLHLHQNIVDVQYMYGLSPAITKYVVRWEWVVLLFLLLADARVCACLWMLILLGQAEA

Target: GST-E2 fusion protein (HCV E2) (hepatitis C virus (strain not stated for this construct)) (UniProt Q99IB8)
Assay: pull-down; purified GST or GST-E2 added to RIPA lysate of HEK 293 cells expressing AIMP1/p43, 4°C; glutathione sepharose 4B beads; HNGT buffer (20 mM HEPES pH 7.5, 150 mM NaCl, 10% glycerol, 0.1% Triton X-100); western blot; only the target purified

B1: AIMP1/p43 expressed from a plasmid in HEK 293 cells (protein, UniProt Q12904 1-312)
chain: MANNDAVLKRLEQKGAEADQIIEYLKQQVSLLKEKAILQATLREEKKLRVENAKLKKEIEELKQELIQAEIQNGVKQIPFPSGTPLHANSMVSENVIQSTAVTTVSSGTKEQIKGGTGDEKKAKEKIEKKGEKKEKKQQSIAGSADSKPIDVSRLDLRIGCIITARKHPDADSLYVEEVDVGEIAPRTVVSGLVNHVPLEQMQNRMVILLCNLKPAKMRGVLSQAMVMCASSPEKIEILAPPNGSVPGDRITFDAFPGEPDKELNPKKKIWEQIQPDLHTNDECVATYKGVPFEVKGKGVCRAQTMSNSGIK
In the case of B1, the binding is reported as “binds”.
